The list shows a part of the results. Small differences around the control level are noise.

One assay deals with hPSC-derived cortical neurons (WA09). Kind of assay: total neurite length per nucleus (MAP2) z-score; higher = more neurite growth. Particulars: 5 µM; treatment: days 7-14 after plating, readout day 21.
Consider `CC[C@H]1OC(=O)[C@H](C)[C@@H](O[C@H]2C[C@@](C)(OC)[C@@H](O)[C@H](C)O2)[C@H](C)[C@@H](O[C@@H]2O[C@H](C)C[C@H](N(C)C)[C@H]2O)[C@](C)(OC)C[C@@H](C)C(=O)[C@H](C)[C@@H](O)[C@]1(C)O` [Clarithromycin], for which the “total neurite length per nucleus (z-score)” value was 1.45. As to `CCCCCCCCCCCCCCCCO` [1-Hexadecanol], the “total neurite length per nucleus (z-score)” value was 0.519. Consider `NC[C@@](O)(c1ccc(Cl)cc1)c1ccc(-c2cn[nH]c2)cc1`, for which the “total neurite length per nucleus (z-score)” value is -1.88.

The next assay shares this test system. Kind of assay: nucleus roundness z-score vs screen plate; higher = rounder nuclei (more mature). The settings on record: 5 µM; treatment: days 7-14 after plating, readout day 21.
The compound `Cn1cc(-c2ccc(F)c(C(F)(F)F)c2)nc1C1CCN(c2ncnc3[nH]ncc23)CC1` displayed a nucleus roundness z-score of -0.881. `c1cc(-c2cnn3cc(-c4ccc(OCCN5CCCCC5)cc4)cnc23)ccn1` [Dorsomorphin (Compound C)] displayed a nucleus roundness z-score of -0.805. The same measure, in the same setting: the figure for `CN1CCN(C2=Nc3ccccc3Oc3ccc(Cl)cc32)CC1` [Loxapine Succinate] is -0.343; for `NC(=O)c1cnc2[nH]ccc2c1NC1[C@@H]2CC3C[C@H]1CC(O)(C3)C2` (some centres not stated) it is 0.43. The compound `CN(C)c1cc(NC(=O)CNC(C)(C)C)c(O)c2c1C[C@H]1C[C@H]3[C@H](N(C)C)C(O)=C(C(N)=O)C(=O)[C@@]3(O)C(O)=C1C2=O` [Tigecycline] returned a nucleus roundness z-score of 0.562. Take `Cn1c(Nc2ccc(C(F)(F)F)cc2)nc2cc(Oc3ccnc(-c4ncc(C(F)(F)F)[nH]4)c3)ccc21`: the nucleus roundness z-score is -1.8. Compound `CC(=O)NO` [Acetohydroxamic acid] returned a nucleus roundness z-score of 0.866. In the case of `CC(CNC(=O)c1cccnc1)NC(=O)c1cccnc1` (configuration not stated) [Nicaraven], the nucleus roundness z-score is -0.751. `O=C(CCN1CCN(C(=O)OCc2cc(Cl)cc(Cl)c2)CC1)c1ccc2[nH]c(=O)oc2c1` yielded a nucleus roundness z-score of -0.219.

The values above are taken from the supplement of paper PMC11348887.
